This passage reports binding results from patent US20120039806A1.

In this assay the target is Actin (Sigma). Nature of the assay: ELISA, actin coated, biotinylated soluble protein, SA-HRP. For orientation: An ELISA detects its analyte on a solid surface through an enzyme-linked reagent.

These are yes or no findings as the source states them, for the method shown. Tags and fused reporters may be left off the sequences shown.

B1: Cire-ecto (soluble FLAG-tagged C-type lectin Cire, control) (receptor, mouse, not shown: small tags and cut ends)
chain (part 1 of 2): NSGLHHILDAQKMVWNHR
chain (part 2 of 2): VKVYKIPSSQEENNQMNVYQELTQLKAGVDRLCRSCPWDWTHFQGSCYFFSVAQKSWNDSATACHNVGAQLVVIKSDEEQNFLQQTSKKRGYTWMGLIDMSKESTWYWVDGSPLTLSFMKYWSKGEPNNLGEEDCAEFRDDGWNDTKCTNKKFWICKKLSTSCPSK
modifications: biotinylated with BirA where the filing says 'biotinylated' (ELISA, microarray)
Consider B1, for which the binding result is reported as “no binding”.
